# The whole screen tested about 400,000 compounds, of which about 13,000 (3.2%) were called active. This list was built around the results that the source calls inconclusive (neither active nor inactive); the mix of calls is not that of the screen. Calls follow the shape of the dose curve; as a rule, active = well fitted cell-killing curve with a large enough effect; inconclusive = small, poorly fitted or top-dose-only effect, or effect the other way; inactive = flat fitted curve, though single readings scatter. Where the call is inconclusive, the potency comes from a doubtful curve fit.
# Test: qHTS assay for MDR1-selective chemotherapeutics: Primary screen using the drug-selected MDR subline cells KB-V1; also: nearly all actives have a fitted effect of over 60% in size
# Conditions: KB-V1 MDR cells viability, CellTiter-Glo, 72 h; activity change, negative = cytotoxicity: at 46.1 µM (top of the series)
# Procedure, shortened: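 In this primary screen, KB-V1 cells overexpressing P-gp are incubated with library compounds (lowest to highest concentration) for 72 h at 37 degrees C before a luminescent ATP viability read.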
# % is scaled to controls: 0 for no effect and ±100 for the full control effect; potency is read from the fitted curve at half-maximal effect.
SMILES,"activity change, negative = cytotoxicity",Potency
CCc1cc(C(=O)NCC(C)(C)N2CCOCC2)sc1C,inactive: -0.494%,–
Cc1ccc(C(=O)OCC(=O)NCc2cccc(Cl)c2)cc1S(=O)(=O)N1CCCCC1,–,"inconclusive: 8.2 µM [cytotoxic, partial curve]"
COC(=O)c1ccc(Sc2nnnn2-c2ccccc2)c([N+](=O)[O-])c1,–,"inconclusive: 29.1 µM [cytotoxic, single point]"
COc1ccccc1N(C(=O)c1ccncc1)c1nc(-c2ccc([N+](=O)[O-])cc2)cs1,–,"inconclusive: 18.4 µM [cytotoxic, single point]"
CCOC(=O)N1CCN(C(=O)C2CCC(CNS(=O)(=O)c3ccc(Cl)cc3)CC2)CC1 (stereo not given),inactive: -6.24%,–
CC12CCC(O)CC1=CCC1C2CCC2(C)c3[nH]ncc3CC12 (stereo not given),inactive: -26.1%,–
CCCOc1ccc(C(=O)C(CN2CCOCC2)c2ccccc2)cc1 (stereo not given),–,"inconclusive: 16.4 µM [cytotoxic, single point]"
CCOC(=O)c1c(C)[nH]c(C)c1S(=O)(=O)N(C)CC(=O)N1CCN(c2ccccc2OC)CC1,–,"inconclusive: 29.1 µM [cytotoxic, single point]"
COCC1CCN(C(=O)C2CCC(=O)N(CCc3cccc(F)c3)C2)CC1 (stereo not given),–,"inconclusive: 2.91 µM [cytotoxic, partial curve, poor fit]"
CC(=O)Nc1ccc(OCC(=O)N2CCC(Cc3ccccc3)CC2)cc1,–,"inconclusive: 23.1 µM [cytotoxic, single point]"
CSC(SC)=C(C#N)C(=O)c1ccccc1,–,"inconclusive: 32.6 µM [cytotoxic, single point]"
Cc1ccc(C(=O)O)cc1-n1c(=O)n(Cc2ccccc2)c(=O)c2[nH]cnc21,inactive: 0%,–
COc1ccc(C(=O)NNC(=O)Cc2nc3ccccc3n2C)cc1,–,"inconclusive: 20.6 µM [cytotoxic, single point]"
CCCCCn1c(C)c2c(OCC)cccc(=O)c2c1C,–,"inconclusive: 7.31 µM [cytotoxic, partial curve]"
CCOC(=O)c1ccc(NC(=S)P(=O)(c2ccccc2)c2ccccc2)cc1,–,"inconclusive: 18.4 µM [cytotoxic, partial curve, poor fit]"
COc1ccc(C(=O)Nc2ccc(S(=O)(=O)NC(C)C)cc2)cc1,–,"inconclusive: 20.6 µM [cytotoxic, single point]"
CCCCOCCCNC(=O)C[C@@H]1C[C@@]2(C(=O)OCC)CCC=C2N(Cc2ccc3c(c2)OCO3)C1=O,–,"inconclusive: 5.17 µM [cytotoxic, partial curve]"
O=C(CCNC(=O)c1ccccc1Cl)Nc1cc(C(F)(F)F)ccc1Cl,inactive: -14.1%,–
O=[N+]([O-])c1ccc(S(=O)(=O)N2CCN(c3nc(-c4ccccc4)nc4ccccc34)CC2)cc1,inactive: 0%,–
Cc1ccc(OCCCc2c(C)n[nH]c2C)cc1,inactive: 1.09%,–
CS(=O)(=O)c1ccc(Cl)c(NC(=O)c2cccc(N3C(=O)CCC3=O)c2)c1,–,"inconclusive: 14.6 µM [rising, partial curve, poor fit]"
COc1cccc(N(CC(=O)N2CCCCCC2)S(C)(=O)=O)c1,inactive: 3.22%,–
CN(Cc1ccccc1)C(=O)c1ccccc1NC(=O)c1ccccc1,–,active: 23.1 µM

# Filtered by structure, those above with a nitro group on carbon (three)
SMILES,"activity change, negative = cytotoxicity",Potency
COC(=O)c1ccc(Sc2nnnn2-c2ccccc2)c([N+](=O)[O-])c1,–,"inconclusive: 29.1 µM [cytotoxic, single point]"
COc1ccccc1N(C(=O)c1ccncc1)c1nc(-c2ccc([N+](=O)[O-])cc2)cs1,–,"inconclusive: 18.4 µM [cytotoxic, single point]"
O=[N+]([O-])c1ccc(S(=O)(=O)N2CCN(c3nc(-c4ccccc4)nc4ccccc34)CC2)cc1,inactive: 0%,–

# Continuation.

SMILES,"activity change, negative = cytotoxicity",Potency
Cc1nnc(NC(=O)Cn2c(=O)sc3ccccc32)s1,–,"inconclusive: 29.1 µM [rising, single point]"
O=C(O)c1ccccc1C(=O)NC1CCCc2ccccc21 (stereo not given),inactive: 1.41%,–
CC1CCCC(C)N1C(=O)CSc1nnc(COc2ccccc2)n1-c1ccccc1 (stereo not given),–,"inconclusive: 29.1 µM [cytotoxic, single point]"
O=S(=O)(Nc1ccc2oc(-c3ccccc3)nc2c1)c1ccccc1,inactive: -9.13%,–
COc1ccc(Cl)cc1NC(=O)[C@H]1O[C@@H]2OC(C)(C)O[C@@H]2[C@H]2OC(C)(C)O[C@H]21,inactive: 0.927%,–
COc1ccc(C2CC=C(C(C)=O)CN2S(=O)(=O)c2ccc(Cl)cc2)cc1 (stereo not given),–,inactive
CCOc1ccc(Oc2ccc(Cl)cc2NC(=O)CCNC(C)=O)cc1,–,"inconclusive: 13 µM [cytotoxic, partial curve]"
CC(C)C(=O)NCCCc1ccccc1,–,"inconclusive: 29.1 µM [rising, single point]"
CSCCC(C(=O)Nc1c(C)cccc1C)N1CCN(c2ccc(C(F)(F)F)cn2)CC1 (stereo not given),inactive: 27.1%,–
Cc1cc(C)c(NC(=O)CCn2nnc3ccccc32)c(C)c1,–,"inconclusive: 29.1 µM [cytotoxic, single point]"
COc1ccc(C2CC(=O)c3sc(NC(C)=O)nc3C2)cc1 (stereo not given),–,"inconclusive: 18.4 µM [cytotoxic, single point]"
CCN(CC)S(=O)(=O)c1ccc(/C=C/C(=O)Nc2ccc(N3CCOCC3)cc2)cc1,–,"inconclusive: 5.17 µM [cytotoxic, partial curve]"
CCCCCCN1C[C@H](O)[C@@H](n2cc(C3CC3)nn2)C[C@@H]1c1ccc(OC)cc1,–,"inconclusive: 10.3 µM [cytotoxic, partial curve]"
Cc1noc(C)c1C(=O)N1CCN(c2ccc(OCc3ccccc3)cc2)CC1,–,active: 14.6 µM
NS(=O)(=O)c1ccc(CCNC(=O)CSc2nc3c(sc(=S)n3-c3ccccc3)c(=O)[nH]2)cc1,inactive: 18.5%,–
COc1ccc(-n2nc3c(N4CCC(C(=O)NCc5cccc(C)c5)CC4)nnc(C)c3c2C)cc1,inactive: 7.67%,–
O=C(COc1ccccc1-c1ccccc1)NCc1cccc(Cl)c1,–,"inconclusive: 29.1 µM [cytotoxic, single point]"
CC(=O)Nc1ccc(S(=O)(=O)N(Cc2ccccc2)c2ccccc2F)cc1,inactive: 14.6%,–
c1cncc(-c2nc3cc4ccccc4cc3[nH]2)c1,–,"inconclusive: 29.1 µM [cytotoxic, single point]"
CCC(=O)c1cc(F)c(N2CCN(C(=O)Cc3ccccc3)CC2)cc1C,–,"inconclusive: 23.1 µM [cytotoxic, single point]"
COc1cc(C#Cc2c(-c3cncn3C)n(C)c3ccc(-c4ccc(OC)nc4)cc23)cc(OC)c1,–,"inconclusive: 18.4 µM [cytotoxic, single point]"
Cc1cccc(N2CCN(C(=O)CSc3nc4ccccc4nc3N3CC(C)OC(C)C3)CC2)c1C (stereo not given),–,"inconclusive: 7.31 µM [cytotoxic, partial curve]"

# Reference: PubChem BioAssay AID1347076 (National Center for Advancing Translational Sciences (NCATS), 2019)
